# Source: the supplement of paper PMC8728848
# Some of the results follow.
# Tests used:
# Experiment in all cases: glycan array binding signal (z-score within array); higher = stronger binding
# Conditions in all cases: glycan notation: IUPAC condensed, linker removed
# [1] = target: Gal(b1-4)Glc
# How it was run: (§1)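 Glycan array binding is given as a within-array Z-score, which can be read as non-binding when negative. The arrays, 3228 of them, came from the Consortium for Functional Glycomics database and were retained only where the protein sequence was available. Z-scores were averaged across arrays of the same protein sequence at different concentrations or buffers and across linkers.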
# [2] = target: Gal(b1-4)Glc6S
# How it was run: as §1
# [3] = target: Gal(b1-4)GlcNAc
# How it was run: as §1
# [4] = target: Gal(b1-4)GlcNAc(a1-6)Gal(b1-4)GlcNAc
# How it was run: as §1
# [5] = target: Gal(b1-4)GlcNAc(b1-2)Man
# How it was run: as §1
# [6] = target: Gal(b1-4)GlcNAc(b1-2)Man(a1-3)Man(b1-4)GlcNAc(b1-4)GlcNAc
# How it was run: as §1
# [7] = target: Gal(b1-4)GlcNAc(b1-2)Man(a1-3)[Gal(b1-4)GlcNAc(b1-2)Man(a1-6)]Man(b1-4)GlcNAc(b1-4)GlcNAc
# How it was run: as §1
# [8] = target: Gal(b1-4)GlcNAc(b1-2)Man(a1-3)[Gal(b1-4)GlcNAc(b1-2)Man(a1-6)]Man(b1-4)GlcNAc(b1-4)[Fuc(a1-6)]GlcNAc
# How it was run: as §1
# [9] = target: Gal(b1-4)GlcNAc(b1-2)Man(a1-3)[Gal(b1-4)GlcNAc(b1-2)Man(a1-6)][Gal(b1-4)GlcNAc(b1-4)]Man(b1-4)GlcNAc(b1-4)[Fuc(a1-6)]GlcNAc
# How it was run: as §1
# [10] = target: Gal(b1-4)GlcNAc(b1-2)Man(a1-3)[Gal(b1-4)GlcNAc(b1-2)Man(a1-6)][GlcNAc(b1-4)]Man(b1-4)GlcNAc(b1-4)[Fuc(a1-6)]GlcNAc
# How it was run: as §1
# [11] = target: Gal(b1-4)GlcNAc(b1-2)Man(a1-3)[GlcNAc(b1-2)Man(a1-6)]Man(b1-4)GlcNAc(b1-4)GlcNAc
# How it was run: as §1
# [12] = target: Gal(b1-4)GlcNAc(b1-2)Man(a1-3)[GlcNAc(b1-4)][Gal(b1-4)GlcNAc(b1-2)Man(a1-6)]Man(b1-4)GlcNAc(b1-4)GlcNAc
# How it was run: as §1
# [13] = target: Gal(b1-4)GlcNAc(b1-2)Man(a1-3)[Man(a1-6)]Man(b1-4)GlcNAc(b1-4)GlcNAc
# How it was run: as §1
# [14] = target: Gal(b1-4)GlcNAc(b1-2)Man(a1-6)Man(b1-4)GlcNAc(b1-4)GlcNAc
# How it was run: as §1
# [15] = target: Gal(b1-4)GlcNAc(b1-2)Man(a1-6)[GlcNAc(b1-2)Man(a1-3)]Man(b1-4)GlcNAc(b1-4)GlcNAc
# How it was run: as §1
# [16] = target: Gal(b1-4)GlcNAc(b1-2)Man(a1-6)[Man(a1-3)]Man(b1-4)GlcNAc(b1-4)GlcNAc
# How it was run: as §1
# [17] = target: Gal(b1-4)GlcNAc(b1-2)[Gal(b1-4)GlcNAc(b1-4)]Man(a1-3)[Gal(b1-4)GlcNAc(b1-2)Man(a1-6)]Man(b1-4)GlcNAc(b1-4)GlcNAc
# How it was run: as §1
# [18] = target: Gal(b1-4)GlcNAc(b1-2)[Gal(b1-4)GlcNAc(b1-4)]Man(a1-3)[Gal(b1-4)GlcNAc(b1-2)[Gal(b1-4)GlcNAc(b1-6)]Man(a1-6)]Man(b1-4)GlcNAc(b1-4)GlcNAc
# How it was run: as §1
# [19] = target: Gal(b1-4)GlcNAc(b1-2)[Gal(b1-4)GlcNAc(b1-4)]Man(a1-3)[GlcNAc(b1-4)][Gal(b1-4)GlcNAc(b1-2)Man(a1-6)]Man(b1-4)GlcNAc(b1-4)GlcNAc
# How it was run: as §1
# [20] = target: Gal(b1-4)GlcNAc(b1-2)[Gal(b1-4)GlcNAc(b1-4)]Man(a1-3)[GlcNAc(b1-4)][Gal(b1-4)GlcNAc(b1-2)[Gal(b1-4)GlcNAc(b1-6)]Man(a1-6)]Man(b1-4)GlcNAc(b1-4)GlcNAc
# How it was run: as §1
# [21] = target: Gal(b1-4)GlcNAc(b1-2)[Gal(b1-4)GlcNAc(b1-6)]Man(a1-6)[Gal(b1-4)GlcNAc(b1-2)Man(a1-3)]Man(b1-4)GlcNAc(b1-4)GlcNAc
# How it was run: as §1
# [22] = target: Gal(b1-4)GlcNAc(b1-2)[Gal(b1-4)GlcNAc(b1-6)]Man(a1-6)[Gal(b1-4)GlcNAc(b1-2)Man(a1-3)]Man(b1-4)GlcNAc(b1-4)[Fuc(a1-6)]GlcNAc
# How it was run: as §1
binder,measurement,setting,value
EULS2 M3 (Oryza sativa) (protein) MVYCRANPNYAMTARNGAVVLAPANPKDEYQHWIKDMRWSTSIKDEEGYPAFALVNKATGQAIKHSLGQSHPVRLVPYNPEVMDESVLWTESRDVGNGFRCIRMVNNIYLNFDAFHGDKYHGGVRDGTDIVLWKLCEGDSLRWKIQPYYILEQKLISEEDLNSAVDHHHHHH,glycan array binding signal (z-score),[1],0.194
same,glycan array binding signal (z-score),[2],-0.2
same,glycan array binding signal (z-score),[3],-0.275
same,glycan array binding signal (z-score),[4],-1.03
same,glycan array binding signal (z-score),[5],-0.082
same,glycan array binding signal (z-score),[6],0.165
same,glycan array binding signal (z-score),[7],-0.433
same,glycan array binding signal (z-score),[8],0.02
same,glycan array binding signal (z-score),[9],-0.303
same,glycan array binding signal (z-score),[10],-0.045
same,glycan array binding signal (z-score),[11],-0.718
same,glycan array binding signal (z-score),[12],0.316
same,glycan array binding signal (z-score),[13],0.111
same,glycan array binding signal (z-score),[14],-0.412
same,glycan array binding signal (z-score),[15],-0.251
same,glycan array binding signal (z-score),[16],0.598
same,glycan array binding signal (z-score),[17],-0.298
same,glycan array binding signal (z-score),[18],-0.308
same,glycan array binding signal (z-score),[19],-0.237
same,glycan array binding signal (z-score),[20],-0.185
same,glycan array binding signal (z-score),[21],-0.379
same,glycan array binding signal (z-score),[22],-1.03

# Pulled one by one from the list above, two records:
binder,measurement,setting,value
EULS2 M3 (Oryza sativa) (protein) MVYCRANPNYAMTARNGAVVLAPANPKDEYQHWIKDMRWSTSIKDEEGYPAFALVNKATGQAIKHSLGQSHPVRLVPYNPEVMDESVLWTESRDVGNGFRCIRMVNNIYLNFDAFHGDKYHGGVRDGTDIVLWKLCEGDSLRWKIQPYYILEQKLISEEDLNSAVDHHHHHH,glycan array binding signal (z-score),[15],-0.251
same,glycan array binding signal (z-score),[7],-0.433
